The test has as its target T1, carboxypeptidase N1 (CPN1), overexpressed from pCMV3-SP-Flag-CPN1 (UniProt P15169).
T1 sequence: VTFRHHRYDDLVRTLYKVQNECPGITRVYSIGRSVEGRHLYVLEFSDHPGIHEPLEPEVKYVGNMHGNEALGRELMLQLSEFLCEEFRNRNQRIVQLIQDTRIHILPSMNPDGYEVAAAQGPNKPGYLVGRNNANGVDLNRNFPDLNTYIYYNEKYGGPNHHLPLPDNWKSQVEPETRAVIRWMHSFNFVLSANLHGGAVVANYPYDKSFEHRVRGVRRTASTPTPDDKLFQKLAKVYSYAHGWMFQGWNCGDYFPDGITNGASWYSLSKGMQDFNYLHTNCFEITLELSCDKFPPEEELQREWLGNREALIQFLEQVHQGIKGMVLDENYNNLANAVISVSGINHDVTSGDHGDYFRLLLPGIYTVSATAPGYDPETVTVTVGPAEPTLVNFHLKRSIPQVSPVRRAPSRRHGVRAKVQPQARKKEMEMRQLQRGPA
The experiment in a line: co-IP; 293T cells; Co-IP Kit (Thermo Fisher Scientific); part of the eluate subjected to SDS-PAGE; validation blot of Figure 1C.

Results are given in words; binding and its absence hold for the method and conditions named. Binding seen in cells or lysates may run through a third protein. Some binding calls cover weakened binding; strength is not graded here. Sequences can lack the tags named with a protein.

B1: retinoic acid-induced protein 14 (RAI14) (protein, UniProt Q9P0K7 1-980)
chain: MKSLKAKFRKSDTNEWNKNDDRLLQAVENGDAEKVASLLGKKGASATKHDSEGKTAFHLAAAKGHVECLRVMITHGVDVTAQDTTGHSALHLAAKNSHHECIRKLLQSKCPAESVDSSGKTALHYAAAQGCLQAVQILCEHKSPINLKDLDGNIPLLLAVQNGHSEICHFLLDHGADVNSRNKSGRTALMLACEIGSSNAVEALIKKGADLNLVDSLGYNALHYSKLSENAGIQSLLLSKISQDADLKTPTKPKQHDQVSKISSERSGTPKKRKAPPPPISPTQLSDVSSPRSITSTPLSGKESVFFAEPPFKAEISSIRENKDRLSDSTTGADSLLDISSEADQQDLLSLLQAKVASLTLHNKELQDKLQAKSPKEAEADLSFDSYHSTQTDLGPSLGKPGETSPPDSKSSPSVLIHSLGKSTTDNDVRIQQLQEILQDLQKRLESSEAERKQLQVELQSRRAELVCLNNTEISENSSDLSQKLKETQSKYEEAMKEVLSVQKQMKLGLVSPESMDNYSHFHELRVTEEEINVLKQDLQNALEESERNKEKVRELEEKLVEREKGTVIKPPVEEYEEMKSSYCSVIENMNKEKAFLFEKYQEAQEEIMKLKDTLKSQMTQEASDEAEDMKEAMNRMIDELNKQVSELSQLYKEAQAELEDYRKRKSLEDVTAEYIHKAEHEKLMQLTNVSRAKAEDALSEMKSQYSKVLNELTQLKQLVDAQKENSVSITEHLQVITTLRTAAKEMEEKISNLKEHLASKEVEVAKLEKQLLEEKAAMTDAMVPRSSYEKLQSSLESEVSVLASKLKESVKEKEKVHSEVVQIRSEVSQVKREKENIQTLLKSKEQEVNELLQKFQQAQEELAEMKRYAESSSKLEEDKDKKINEMSKEVTKLKEALNSLSQLSYSTSSSKRQSQQLEALQQQVKQLQNQLAECKKQHQEVISVYRMHLLYAVQGQMDEDVQKVLKQILTMCKNQSQKK
As for B1, the binding result was “binds”.

Source of the values: publication PMC9010950.
